These are yes or no findings as the source states them, for the method shown. Binding seen in cells or lysates may run through a third protein. Some binding calls cover weakened binding; strength is not graded here.
Target: HA-SmD2 (UniProt P62316)
Assay: co-IP; exogenous SmD2 and p300 in transfected HEK293T cells; lysis buffer 20 mM HEPES pH 7.4, 150 mM NaCl, 1 mM EDTA, 0.1% Triton X-100; magnetic beads, 4 °C; immunoblot

Protein sequences, listed by entry. Tags and fused reporters are not part of them.
UniProt P62316: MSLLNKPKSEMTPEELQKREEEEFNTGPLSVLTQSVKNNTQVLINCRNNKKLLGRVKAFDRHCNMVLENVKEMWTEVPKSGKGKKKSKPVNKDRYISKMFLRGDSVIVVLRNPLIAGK
UniProt Q09472: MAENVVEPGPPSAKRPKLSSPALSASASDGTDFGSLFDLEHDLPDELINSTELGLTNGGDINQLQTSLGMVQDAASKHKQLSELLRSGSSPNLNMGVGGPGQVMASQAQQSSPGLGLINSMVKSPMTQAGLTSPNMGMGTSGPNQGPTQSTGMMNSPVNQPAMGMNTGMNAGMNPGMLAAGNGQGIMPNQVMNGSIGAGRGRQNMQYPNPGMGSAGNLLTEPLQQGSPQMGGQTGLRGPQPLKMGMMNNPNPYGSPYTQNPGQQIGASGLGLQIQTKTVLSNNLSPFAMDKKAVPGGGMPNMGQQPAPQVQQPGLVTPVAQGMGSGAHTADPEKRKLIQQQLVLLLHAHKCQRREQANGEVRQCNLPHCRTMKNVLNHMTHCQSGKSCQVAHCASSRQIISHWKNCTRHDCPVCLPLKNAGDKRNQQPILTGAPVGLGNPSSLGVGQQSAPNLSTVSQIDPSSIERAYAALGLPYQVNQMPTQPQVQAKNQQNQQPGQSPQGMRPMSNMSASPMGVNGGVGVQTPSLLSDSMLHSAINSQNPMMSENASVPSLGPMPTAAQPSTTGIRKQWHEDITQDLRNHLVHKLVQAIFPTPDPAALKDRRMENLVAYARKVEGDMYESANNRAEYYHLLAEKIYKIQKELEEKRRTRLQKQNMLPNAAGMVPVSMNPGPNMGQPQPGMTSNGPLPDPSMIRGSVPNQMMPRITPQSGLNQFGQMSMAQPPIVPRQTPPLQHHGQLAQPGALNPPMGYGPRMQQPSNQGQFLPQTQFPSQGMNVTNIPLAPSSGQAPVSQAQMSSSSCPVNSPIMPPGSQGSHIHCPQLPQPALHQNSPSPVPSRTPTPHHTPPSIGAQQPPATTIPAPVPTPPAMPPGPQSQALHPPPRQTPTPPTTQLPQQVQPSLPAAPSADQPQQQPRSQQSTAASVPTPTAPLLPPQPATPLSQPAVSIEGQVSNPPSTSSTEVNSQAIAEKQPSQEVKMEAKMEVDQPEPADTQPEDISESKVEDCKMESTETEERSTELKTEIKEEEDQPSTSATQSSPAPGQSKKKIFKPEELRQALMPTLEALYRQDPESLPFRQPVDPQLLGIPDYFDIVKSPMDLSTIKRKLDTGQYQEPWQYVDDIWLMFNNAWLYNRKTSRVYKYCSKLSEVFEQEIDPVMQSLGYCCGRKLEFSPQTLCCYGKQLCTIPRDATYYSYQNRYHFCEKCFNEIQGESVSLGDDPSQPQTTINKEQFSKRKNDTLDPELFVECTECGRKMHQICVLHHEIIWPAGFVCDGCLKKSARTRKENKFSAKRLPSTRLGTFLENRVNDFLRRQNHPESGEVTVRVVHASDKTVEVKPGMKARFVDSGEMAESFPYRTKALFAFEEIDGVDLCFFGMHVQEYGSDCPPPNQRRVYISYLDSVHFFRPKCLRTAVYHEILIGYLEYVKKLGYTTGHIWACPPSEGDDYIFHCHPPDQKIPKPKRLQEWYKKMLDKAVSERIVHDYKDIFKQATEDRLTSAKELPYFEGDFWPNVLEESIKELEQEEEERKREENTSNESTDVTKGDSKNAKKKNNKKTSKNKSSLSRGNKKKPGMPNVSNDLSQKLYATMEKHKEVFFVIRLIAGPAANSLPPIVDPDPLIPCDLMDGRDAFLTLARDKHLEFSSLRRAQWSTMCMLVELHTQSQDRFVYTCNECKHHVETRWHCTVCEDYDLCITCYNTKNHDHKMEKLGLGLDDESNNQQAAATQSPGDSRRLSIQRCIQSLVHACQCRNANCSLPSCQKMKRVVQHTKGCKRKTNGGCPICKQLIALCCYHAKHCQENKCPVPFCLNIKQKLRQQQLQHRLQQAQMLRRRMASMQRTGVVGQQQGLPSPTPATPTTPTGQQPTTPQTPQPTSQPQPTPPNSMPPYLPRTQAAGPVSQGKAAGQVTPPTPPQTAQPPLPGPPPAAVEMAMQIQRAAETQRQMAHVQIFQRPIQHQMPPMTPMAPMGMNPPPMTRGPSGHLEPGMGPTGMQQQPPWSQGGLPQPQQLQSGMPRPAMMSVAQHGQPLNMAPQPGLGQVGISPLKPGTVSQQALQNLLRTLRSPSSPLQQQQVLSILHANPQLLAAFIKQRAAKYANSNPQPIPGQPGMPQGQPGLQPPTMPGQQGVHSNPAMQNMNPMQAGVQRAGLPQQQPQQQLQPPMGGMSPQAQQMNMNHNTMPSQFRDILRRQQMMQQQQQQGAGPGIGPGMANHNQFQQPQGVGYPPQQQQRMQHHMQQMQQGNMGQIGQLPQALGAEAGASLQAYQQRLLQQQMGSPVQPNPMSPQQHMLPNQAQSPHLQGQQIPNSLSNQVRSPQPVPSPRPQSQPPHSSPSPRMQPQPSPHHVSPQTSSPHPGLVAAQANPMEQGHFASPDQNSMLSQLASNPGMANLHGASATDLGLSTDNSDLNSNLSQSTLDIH

Q: How did the binding turn out when “Flag-tagged p300 (from UniProt Q09472 1-2414) (enzyme)” was run?
A: Its binding is “binds”.

Reference: article PMC11189467
